Experimental data taken from paper PMC4317497.
Results are given in words; binding and its absence hold for the method and conditions named. Binding seen in cells or lysates may run through a third protein. Some binding calls cover weakened binding; strength is not graded here. Tags and fused reporters may be left off the sequences shown.

How the values were obtained:
[1] = target: T1, GST-tagged S177D-Pdlim5 (mouse) (UniProt Q8CI51); test: pull-down; GST-Pdlim5 (WT or S177D) pull-down from U937 lysate; eluates immunoblotted with anti-Arhgef6 antibody; only the target purified
T1 sequence: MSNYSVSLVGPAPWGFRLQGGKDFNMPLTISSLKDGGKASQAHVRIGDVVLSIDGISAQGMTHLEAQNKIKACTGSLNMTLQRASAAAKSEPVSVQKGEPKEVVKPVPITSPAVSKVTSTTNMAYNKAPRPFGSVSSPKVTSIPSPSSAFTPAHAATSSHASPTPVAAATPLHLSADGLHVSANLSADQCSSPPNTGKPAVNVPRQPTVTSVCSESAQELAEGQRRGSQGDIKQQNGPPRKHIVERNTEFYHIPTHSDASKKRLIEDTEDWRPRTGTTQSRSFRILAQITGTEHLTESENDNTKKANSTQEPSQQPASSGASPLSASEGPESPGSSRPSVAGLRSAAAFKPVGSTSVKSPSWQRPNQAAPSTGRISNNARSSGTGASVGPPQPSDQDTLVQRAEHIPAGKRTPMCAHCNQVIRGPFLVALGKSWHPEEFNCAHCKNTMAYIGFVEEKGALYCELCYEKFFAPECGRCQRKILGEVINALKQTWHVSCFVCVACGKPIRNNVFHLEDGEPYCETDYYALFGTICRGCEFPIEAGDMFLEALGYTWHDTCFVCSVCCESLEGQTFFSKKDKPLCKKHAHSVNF

[2] = target: T2, GST-tagged WT-Pdlim5 (PDZ and LIM domain 5) (mouse) (UniProt Q8CI51); test: as above
T2 sequence: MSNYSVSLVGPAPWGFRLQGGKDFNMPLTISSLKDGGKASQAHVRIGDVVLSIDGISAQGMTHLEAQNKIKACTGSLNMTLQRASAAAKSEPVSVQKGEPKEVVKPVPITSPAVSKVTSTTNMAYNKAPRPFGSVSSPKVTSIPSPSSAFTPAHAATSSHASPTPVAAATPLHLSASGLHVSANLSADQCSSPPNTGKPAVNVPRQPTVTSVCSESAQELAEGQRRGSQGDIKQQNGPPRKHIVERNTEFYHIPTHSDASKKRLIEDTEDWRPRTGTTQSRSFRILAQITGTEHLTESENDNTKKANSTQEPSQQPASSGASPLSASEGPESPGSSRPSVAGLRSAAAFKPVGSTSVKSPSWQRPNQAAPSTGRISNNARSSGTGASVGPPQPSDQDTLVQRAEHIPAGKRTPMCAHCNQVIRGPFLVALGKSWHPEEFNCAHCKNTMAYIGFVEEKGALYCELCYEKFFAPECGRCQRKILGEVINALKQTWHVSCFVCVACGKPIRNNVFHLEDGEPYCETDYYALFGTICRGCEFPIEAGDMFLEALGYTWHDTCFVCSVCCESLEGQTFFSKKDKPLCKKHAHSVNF

binding [1]: no binding
binding [2]: binds
B1: Rho GEF 6 (Arhgef6) (protein, UniProt Q15052 1-776)
chain: MNPEEQIVTWLISLGVLESPKKTICDPEEFLKSSLKNGVVLCKLINRLMPGSVEKFCLDPQTEADCINNINDFLKGCATLQVEIFDPDDLYSGVNFSKVLSTLLAVNKATEDQLSERPCGRSSSLSAANTSQTNPQGAVSSTVSGLQRQSKTVEMTENGSHQLIVKARFNFKQTNEDELSVCKGDIIYVTRVEEGGWWEGTLNGRTGWFPSNYVREIKSSERPLSPKAVKGFETAPLTKNYYTVVLQNILDTEKEYAKELQSLLVTYLRPLQSNNNLSTVEVTSLLGNFEEVCTFQQTLCQALEECSKFPENQHKVGGCLLSLMPHFKSMYLAYCANHPSAVNVLTQHSDELEQFMENQGASSPGILILTTNLSKPFMRLEKYVTLLQELERHMEDTHPDHQDILKAIVAFKTLMGQCQDLRKRKQLELQILSEPIQAWEGEDIKNLGNVIFMSQVMVQYGACEEKEERYLMLFSNVLIMLSASPRMSGFIYQGKIPIAGTVVTRLDEIEGNDCTFEITGNTVERIVVHCNNNQDFQEWLEQLNRLIRGPASCSSLSKTSSSSCSAHSSFSSTGQPRGPLEPPQIIKPWSLSCLRPAPPLRPSAALGYKERMSYILKESSKSPKTMKKFLHKRKTERKPSEEEYVIRKSTAALEEDAQILKVIEAYCTSANFQQGHGSSTRKDSIPQVLLPEEEKLIIEETRSNGQTIMEEKSLVDTVYALKDEVRELKQENKRMKQCLEEELKSRRDLEKLVRRLLKQTDECIRGESSSKTSILP
